From US4376766A, “Anti-sickling agents” (G.D. Searle & Co., priority 1980, dated 1983)
Part of at least one peptide drawing is inferred or uncertain, most often the ends.

Test system: sickle cell haemoglobin (HbS)
Experiment: HbS gelation assay (solubility Csol of deoxygenated HbS)
Format: biochemical, human
Settings: FIG. 2
Protocol: A number of in vitro methods have been developed for testing the effects of compounds of the functioning of HbS molecules. One such method determines the ability of a compound to inhibit gel formation in HbS solutions. In this gelation assay, Hb solution in phosphate buffer, pH 7.0, at physiological concentrations are mixed at 0° C. with the test compound and deoxygenated by evacuation. […] The solutions are then transferred to centrifuge tubes and equilibrated at 37° C. for 30 minutes before centrifugation at 150,000 g for 1 hour. The supernatant is decanted from the gel and the Hb concentration (Csol) thereof determined spectrophotometrically. For sickle cell haemoglobin without addition of anti-sickling agent, the Csol is typically 17 gm/dl. This compares with a Csol of 23 gm/dl for haemoglobin extracted from individuals having sickle cell trait.

NCCCC[C@H](N)C(=O)N[C@@H](CO)C(=O)O [L-lysine-L-serine, reference compound]
effect on Csol of HbS: no significant rise in Csol
